Reference: PubChem BioAssay AID652272 (Drosophila RNAi Screening Center, 2013)
Assay: 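Finding fly genes that regulate Hedgehog signal transduction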 (primary screen). Cells: Drosophila clone 8 (Cl8) cells. Reagent: long dsRNA against Drosophila genes. Read-out: 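Plate reader light from a firefly reporter under a ptc promoter fragment that responds to Hedgehog, with Renilla light as transfection reference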. Scale: firefly Hh reporter signal: higher = more ptc reporter light; Renilla reference signal: higher = more Renilla control light. Active means: 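Called a hit if the two-replicate mean z-score lies below -2 or above +3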. Calls: active = hit: reporter lowered or raised; inactive = not a hit.
The deposit covers about 21,000 reagents; this is an unselected part of those that have a named target and a result. Over the whole deposit, 503 (2.4%) are marked active. 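Raw plate light values, not normalised; calls rest on replicate z-scores that were not deposited; hits include reporter decreases as well as increases.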 A number with no mark means an inactive call. A plus sign joins genes that one reagent is predicted to hit. No sequences are given here. Not stated in the record: the amount of reagent, the time to read-out.

Against betaTub97EF (beta-Tubulin at 97EF) [DRSC15666] the deposit lists firefly Hh reporter signal, replicate 1 = 1.54e5; firefly Hh reporter signal, replicate 2 = 94052; Renilla reference signal, replicate 1 = 5427; Renilla reference signal, replicate 2 = 2615.
Depletion of betaTub97EF (beta-Tubulin at 97EF) [DRSC15667] gave: firefly Hh reporter signal, replicate 1 = 1.51e5; firefly Hh reporter signal, replicate 2 = 1.15e5; Renilla reference signal, replicate 1 = 5132; Renilla reference signal, replicate 2 = 3507.
Knock-down of betaTub97EF (beta-Tubulin at 97EF) [DRSC15668] gave: firefly Hh reporter signal, replicate 1 = 1.19e5; firefly Hh reporter signal, replicate 2 = 81059; Renilla reference signal, replicate 1 = 4524; Renilla reference signal, replicate 2 = 2628.
Depletion of CG5404 [DRSC15793] gave: firefly Hh reporter signal, replicate 1 = 2.42e5; firefly Hh reporter signal, replicate 2 = 1.07e5; Renilla reference signal, replicate 1 = 8951; Renilla reference signal, replicate 2 = 1426.
With knock-down of CG3397 [DRSC15487], the record shows firefly Hh reporter signal, replicate 1 = 1.26e5; firefly Hh reporter signal, replicate 2 = 1.13e5; Renilla reference signal, replicate 1 = 4880; Renilla reference signal, replicate 2 = 3974.
CSN6 (COP9 signalosome subunit 6) [DRSC16593] showed firefly Hh reporter signal, replicate 1 = 5.98e5; firefly Hh reporter signal, replicate 2 = 1.36e5; Renilla reference signal, replicate 1 = 27574; Renilla reference signal, replicate 2 = 3371.
CG7606 [DRSC13246] scored firefly Hh reporter signal, replicate 1 = 51600; firefly Hh reporter signal, replicate 2 = 2.09e5; Renilla reference signal, replicate 1 = 10775; Renilla reference signal, replicate 2 = 5560.
Silencing of CG7606 [DRSC16268] gave: firefly Hh reporter signal, replicate 1 = 93027; firefly Hh reporter signal, replicate 2 = 95899; Renilla reference signal, replicate 1 = 4080; Renilla reference signal, replicate 2 = 2325.
Against Akap200 (A kinase anchor protein 200) [DRSC01864], the values are firefly Hh reporter signal, replicate 1 = 61955; firefly Hh reporter signal, replicate 2 = 33591; Renilla reference signal, replicate 1 = 2901; Renilla reference signal, replicate 2 = 1259.
Depletion of Ass + CG31286 [DRSC12493] resulted in: firefly Hh reporter signal, replicate 1 = 67812; firefly Hh reporter signal, replicate 2 = 82928; Renilla reference signal, replicate 1 = 2640; Renilla reference signal, replicate 2 = 2454.
After knock-down of Frq1 (Frequenin 1) [DRSC19961], the record shows firefly Hh reporter signal, replicate 1 = 96738; firefly Hh reporter signal, replicate 2 = 2.59e5; Renilla reference signal, replicate 1 = 3416; Renilla reference signal, replicate 2 = 10012.
Depletion of CG9399 [DRSC16488] gave: firefly Hh reporter signal, replicate 1 = 1.23e5; firefly Hh reporter signal, replicate 2 = 1.21e5; Renilla reference signal, replicate 1 = 3916; Renilla reference signal, replicate 2 = 3129.
PIG-H (Phosphatidylinositol glycan anchor biosynthesis class H) [DRSC14856] gave firefly Hh reporter signal, replicate 1 = 1.06e5; firefly Hh reporter signal, replicate 2 = 1.60e5; Renilla reference signal, replicate 1 = 3680; Renilla reference signal, replicate 2 = 15272.
Depletion of CG5882 [DRSC15907] resulted in: firefly Hh reporter signal, replicate 1 = 87258; firefly Hh reporter signal, replicate 2 = 1.11e5; Renilla reference signal, replicate 1 = 3241; Renilla reference signal, replicate 2 = 3081.
Depletion of CG4612 [DRSC04478] came out at: firefly Hh reporter signal, replicate 1 = 80487; firefly Hh reporter signal, replicate 2 = 39829; Renilla reference signal, replicate 1 = 3019; Renilla reference signal, replicate 2 = 1601.
With knock-down of Prp39 (pre-mRNA processing factor 39) [DRSC15133] the results were firefly Hh reporter signal, replicate 1 = 83702; firefly Hh reporter signal, replicate 2 = 74780; Renilla reference signal, replicate 1 = 1523; Renilla reference signal, replicate 2 = 2392.
CG17782 [DRSC15267] scored firefly Hh reporter signal, replicate 1 = 4.79e5; firefly Hh reporter signal, replicate 2 = 58888; Renilla reference signal, replicate 1 = 25619; Renilla reference signal, replicate 2 = 2330.
Silencing of CG9886 [DRSC00732] came out at: firefly Hh reporter signal, replicate 1 = 67796; firefly Hh reporter signal, replicate 2 = 90925; Renilla reference signal, replicate 1 = 3080; Renilla reference signal, replicate 2 = 3722.
With knock-down of CG1486 [DRSC20508] the results were firefly Hh reporter signal, replicate 1 = 1.16e5; firefly Hh reporter signal, replicate 2 = 1.06e5; Renilla reference signal, replicate 1 = 2914; Renilla reference signal, replicate 2 = 2928.
Against CG18789 [DRSC02696], the values are firefly Hh reporter signal, replicate 1 = 1.46e5; firefly Hh reporter signal, replicate 2 = 91876; Renilla reference signal, replicate 1 = 3392; Renilla reference signal, replicate 2 = 8124.
Knock-down of CG3491 [DRSC01934] gave: firefly Hh reporter signal, replicate 1 = 72164; firefly Hh reporter signal, replicate 2 = 62038; Renilla reference signal, replicate 1 = 1985; Renilla reference signal, replicate 2 = 5363.
